Values from PubChem BioAssay AID1259424 (University of Nebraska Medical Center, 2018)
Shown is an unselected part of about 14,000 deposited reagents. 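Higher correlation or smaller distance means closer resemblance to KSR1 loss; control wells, including KSR1 knockdowns, recur on many plates.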 Some reagents were tested in more than one well and are listed for each. Not given: the time to read-out.

- Screen: 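Rank knockdowns across the genome by resemblance to the KSR1 depletion profile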 (primary screen)
- Cells: human HCT116 colon cancer cells
- Knock-down reagent: siRNA pool against human genes, 50 nM
- Measured: 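Log2 levels of six mRNAs (branched-DNA multiplex), adjusted by two reference genes and the non-targeting median, then scored against the average KSR1 knockdown pattern as Pearson r and euclidean distance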
- Reading the numbers: mean correlation with KSR1 profile and KSR1 correlation: higher = expression change more like KSR1 knockdown; mean distance from KSR1 profile: higher = expression change less like KSR1 knockdown

gene symbol | mean correlation with KSR1 profile | mean distance from KSR1 profile | KSR1 correlation, replicate 1 | KSR1 correlation, replicate 2 | KSR1 correlation, replicate 3
MAGEB3 (MAGE family member B3) | -0.263 | 1.87 | -0.294 | -0.477 | -0.279
FAT1 (FAT atypical cadherin 1) | -0.0994 | 2.11 | 0.0629 | -0.253 | -0.0733
FN3K (fructosamine 3 kinase) | -0.0588 | 3.41 | -0.0374 | -0.0489 | -0.27
PDCD1 (programmed cell death 1) | -0.565 | 5.18 | -0.516 | -0.624 | -0.561
MT1A (metallothionein 1A) | 0.0926 | 1.6 | -0.0445 | -0.136 | -0.0781
NRBP2 (nuclear receptor binding protein 2) | -0.228 | 1.84 | 0.312 | 0.522 | -0.736
EXT2 (exostosin glycosyltransferase 2) | 0.143 | 4.42 | -0.011 | 0.369 | -0.107
IFNLR1 (interferon lambda receptor 1) | 0.0354 | 1.79 | -0.0525 | -0.0834 | 0.0859
UFM1 (ubiquitin fold modifier 1) | 0.248 | 1.82 | -0.222 | 0.532 | 0.51
FRY (FRY microtubule binding protein) | 0.708 | 1.1 | 0.818 | 0.827 | 0.597
HRG (histidine rich glycoprotein) | -0.103 | 3.36 | -0.18 | 0.107 | -0.0574
RPL29 (ribosomal protein L29) | -0.116 | 2.33 | -0.225 | -0.0375 | 0.073
RAB9A (RAB9A, member RAS oncogene family) | 0.348 | 2.1 | 0.431 | 0.301 | 0.267
TFAP2A (transcription factor AP-2 alpha) | 0.32 | 1.18 | 0.488 | 0.671 | -0.175
VPS26C (VPS26 endosomal protein sorting factor C) | 0.101 | 0.984 | 0.115 | 0.124 | 0.0473
RNF130 (ring finger protein 130) | -0.345 | 2 | -0.297 | -0.477 | -0.429
DRAM1 (DNA damage regulated autophagy modulator 1) | -0.317 | 1.39 | -0.571 | -0.268 | -0.388
GFI1 (growth factor independent 1 transcriptional repressor) | -0.371 | 5.9 | -0.283 | -0.351 | -0.349
CYRIB (CYFIP related Rac1 interactor B) | 0.531 | 1.67 | 0.494 | 0.55 | 0.412
IFFO1 (intermediate filament family orphan 1) | 0.879 | 2.57 | 0.889 | 0.857 | 0.681
FOXO1 (forkhead box O1) | 0.0357 | 2.39 | 0.162 | -0.0199 | 0.0408
TOM1 (target of myb1 membrane trafficking protein) | -0.697 | 3 | -0.795 | -0.719 | -0.57
P2RX3 (purinergic receptor P2X 3) | 0.0911 | 1.5 | 0.198 | 0.216 | -0.221
NETO1 (neuropilin and tolloid like 1) | -0.275 | 2.97 | -0.538 | -0.149 | -0.301
EVI2A (ecotropic viral integration site 2A) | 0.236 | 1.71 | 0.453 | -0.0226 | 0.168
MDM2 (MDM2 proto-oncogene) | -0.12 | 1.36 | -0.302 | -0.154 | -0.0333
OTUD6B (OTU deubiquitinase 6B) | -0.204 | 2.4 | -0.146 | -0.25 | -0.326
KPNA6 (karyopherin subunit alpha 6) | -0.066 | 2.16 | -0.124 | -0.0432 | -0.251
ZGPAT (zinc finger CCCH-type and G-patch domain containing) | 0.957 | 2.16 | 0.887 | 0.947 | 0.805
ZNF385A (zinc finger protein 385A) | -0.309 | 2.1 | -0.158 | -0.419 | -0.251
BMP2 (bone morphogenetic protein 2) | 0.762 | 1.03 | 0.814 | 0.73 | 0.73
RNF41 (ring finger protein 41) | -0.0354 | 1.71 | -0.0282 | 0.0222 | -0.089
FERMT1 (FERM domain containing kindlin 1) | -0.659 | 4.44 | -0.476 | -0.639 | -0.773
PLP2 (proteolipid protein 2) | -0.119 | 2.32 | 0.21 | 0.00576 | -0.251
CCM2 (CCM2 scaffold protein) | -0.0101 | 2.25 | 0.164 | -0.864 | 0.555
GTF2H4 (general transcription factor IIH subunit 4) | -0.18 | 2.36 | -0.242 | -0.303 | -0.148
SF3B5 (splicing factor 3b subunit 5) | -0.367 | 2.99 | -0.733 | -0.697 | -0.0668
PCNA (proliferating cell nuclear antigen) | 0.902 | 2.62 | 0.92 | 0.777 | 0.55
LGR5 (leucine rich repeat containing G protein-coupled receptor 5) | 0.885 | 0.757 | 0.703 | 0.88 | 0.906
TIA1 (TIA1 cytotoxic granule associated RNA binding protein) | 0.0423 | 3.53 | 0.152 | 0.154 | -0.204
DBNL (drebrin like) | 0.284 | 2.15 | 0.255 | 0.336 | 0.404
DBNL (drebrin like) | 0.0815 | 2.34 | 0.322 | -0.273 | 0.435
ATXN7L1 (ataxin 7 like 1) | -0.197 | 2.73 | -0.134 | -0.137 | -0.086
RLIM (ring finger protein, LIM domain interacting) | 0.161 | 1.29 | 0.15 | 0.353 | 0.212
LUM (lumican) | 0.438 | 0.874 | 0.253 | 0.702 | 0.702
EPPIN (epididymal peptidase inhibitor) | -0.536 | 1.56 | -0.496 | -0.475 | -0.146
CHMP2B (charged multivesicular body protein 2B) | -0.36 | 3.32 | -0.204 | -0.593 | -0.304
OR1A2 (olfactory receptor family 1 subfamily A member 2) | 0.346 | 2.05 | 0.651 | 0.0482 | 0.331
NSFL1C (NSFL1 cofactor) | 0.486 | 2.45 | 0.375 | 0.418 | 0.427
NAA40 (N-alpha-acetyltransferase 40, NatD catalytic subunit) | 0.155 | 1.88 | 0.201 | 0.324 | 0.00619

Sorted by “mean distance from KSR1 profile” (lowest first): 5 of the entries above.
gene symbol | mean correlation with KSR1 profile | mean distance from KSR1 profile | KSR1 correlation, replicate 1 | KSR1 correlation, replicate 2 | KSR1 correlation, replicate 3
MDM2 (MDM2 proto-oncogene) | -0.12 | 1.36 | -0.302 | -0.154 | -0.0333
EVI2A (ecotropic viral integration site 2A) | 0.236 | 1.71 | 0.453 | -0.0226 | 0.168
KPNA6 (karyopherin subunit alpha 6) | -0.066 | 2.16 | -0.124 | -0.0432 | -0.251
ZGPAT (zinc finger CCCH-type and G-patch domain containing) | 0.957 | 2.16 | 0.887 | 0.947 | 0.805
OTUD6B (OTU deubiquitinase 6B) | -0.204 | 2.4 | -0.146 | -0.25 | -0.326
